For 1 molecule, binding results are on record in paper PMC7901959.

Amino acid sequences for entries named in this document (tags omitted).
UniProt Q9C030: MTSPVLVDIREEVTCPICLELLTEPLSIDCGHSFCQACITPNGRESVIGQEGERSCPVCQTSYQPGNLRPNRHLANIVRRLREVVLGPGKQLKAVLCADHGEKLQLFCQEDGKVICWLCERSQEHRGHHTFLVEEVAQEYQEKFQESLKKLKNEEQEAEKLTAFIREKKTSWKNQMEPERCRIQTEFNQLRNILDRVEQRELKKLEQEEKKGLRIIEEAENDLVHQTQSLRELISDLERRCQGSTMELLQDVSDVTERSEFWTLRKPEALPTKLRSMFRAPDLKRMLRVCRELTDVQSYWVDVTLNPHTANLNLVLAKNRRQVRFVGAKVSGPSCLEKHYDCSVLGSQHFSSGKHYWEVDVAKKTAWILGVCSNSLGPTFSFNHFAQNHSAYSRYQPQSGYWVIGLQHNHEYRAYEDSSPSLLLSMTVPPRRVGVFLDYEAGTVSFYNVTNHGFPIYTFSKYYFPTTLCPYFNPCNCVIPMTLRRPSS

In this experiment the target is TRIM6 in cell lysate (co-IP) (human) (UniProt Q9C030). The experiment is described as follows: co-IP; cell lysates incubated with anti-TRIM6, anti-TSC1, anti-TSC2 or control IgG for 1 h at 4°C, then protein A/G-agarose for 3 h at 4°C; washed three times in lysis buffer; western blot.

These are yes or no findings as the source states them, for the method shown. Binding seen in cells or lysates may run through a third protein. Some binding calls cover weakened binding; strength is not graded here.

B1: TSC1 in cell lysate (co-IP) (protein, UniProt Q92574 1-1164)
chain: MAQQANVGELLAMLDSPMLGVRDDVTAVFKENLNSDRGPMLVNTLVDYYLETSSQPALHILTTLQEPHDKHLLDRINEYVGKAATRLSILSLLGHVIRLQPSWKHKLSQAPLLPSLLKCLKMDTDVVVLTTGVLVLITMLPMIPQSGKQHLLDFFDIFGRLSSWCLKKPGHVAEVYLVHLHASVYALFHRLYGMYPCNFVSFLRSHYSMKENLETFEEVVKPMMEHVRIHPELVTGSKDHELDPRRWKRLETHDVVIECAKISLDPTEASYEDGYSVSHQISARFPHRSADVTTSPYADTQNSYGCATSTPYSTSRLMLLNMPGQLPQTLSSPSTRLITEPPQATLWSPSMVCGMTTPPTSPGNVPPDLSHPYSKVFGTTAGGKGTPLGTPATSPPPAPLCHSDDYVHISLPQATVTPPRKEERMDSARPCLHRQHHLLNDRGSEEPPGSKGSVTLSDLPGFLGDLASEEDSIEKDKEEAAISRELSEITTAEAEPVVPRGGFDSPFYRDSLPGSQRKTHSAASSSQGASVNPEPLHSSLDKLGPDTPKQAFTPIDLPCGSADESPAGDRECQTSLETSIFTPSPCKIPPPTRVGFGSGQPPPYDHLFEVALPKTAHHFVIRKTEELLKKAKGNTEEDGVPSTSPMEVLDRLIQQGADAHSKELNKLPLPSKSVDWTHFGGSPPSDEIRTLRDQLLLLHNQLLYERFKRQQHALRNRRLLRKVIKAAALEEHNAAMKDQLKLQEKDIQMWKVSLQKEQARYNQLQEQRDTMVTKLHSQIRQLQHDREEFYNQSQELQTKLEDCRNMIAELRIELKKANNKVCHTELLLSQVSQKLSNSESVQQQMEFLNRQLLVLGEVNELYLEQLQNKHSDTTKEVEMMKAAYRKELEKNRSHVLQQTQRLDTSQKRILELESHLAKKDHLLLEQKKYLEDVKLQARGQLQAAESRYEAQKRITQVFELEILDLYGRLEKDGLLKKLEEEKAEAAEAAEERLDCCNDGCSDSMVGHNEEASGHNGETKTPRPSSARGSSGSRGGGGSSSSSSELSTPEKPPHQRAGPFSSRWETTMGEASASIPTTVGSLPSSKSFLGMKARELFRNKSESQCDEDGMTSSLSESLKTELGKDLGVEAKIPLNLDGPHPSPPTPDSVGQLHIMDYNETHHEHS
For the molecule B1, the binding result is reported as “binds”.
